Test results published in patent publication US20200353078A1.
Results are given in words; binding and its absence hold for the method and conditions named. Binding calls can cover weak binding; strength is not graded here.

By UniProt entry, the sequences of proteins in these tests, tags left out. Where a name states a change or a piece, a line headed by the entry shows the natural chain unless it says otherwise.
UniProt O95760: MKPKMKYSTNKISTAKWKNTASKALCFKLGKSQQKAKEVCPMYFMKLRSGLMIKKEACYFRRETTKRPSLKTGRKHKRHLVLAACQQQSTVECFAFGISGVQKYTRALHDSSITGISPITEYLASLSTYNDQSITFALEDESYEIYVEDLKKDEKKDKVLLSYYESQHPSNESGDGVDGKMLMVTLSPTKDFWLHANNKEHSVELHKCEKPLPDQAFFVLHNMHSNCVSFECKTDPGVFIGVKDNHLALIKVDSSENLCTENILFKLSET

How the values were obtained:
[1] = target: redIL-33 (detagged human IL33-01, BK349) (human) (UniProt O95760); experiment: sandwich immunoassay (MedI Assay 2): IL330425 capture, biotinylated sST2.Fc detection; IL-33 titrated
[2] = target: redIL-33 (detagged human IL33-01, BK349) (human) (UniProt O95760); experiment: sandwich immunoassay (MedI Assay 1): IL330004 capture, biotinylated IL330425 detection; IL-33 titrated

B1: IL330425 (antibody, V domains shown)
VH: QVQLVQSGGGVVQPGRSLRLSCAASGFTFSEYSMHWVRQAPGKGLEYVSTISSNGAGTYYADSVKGRVTISRDNSKNTLYVQMSSLRPEDTAVYYCVKSLTKYPYGNYFDYWGRGTTVTVSS
VL: SSELTQDPAVSVALGQTVRITCQGDSLRSYYASWYQQKPGQAPVLVIYGKNNRPSGIPDRFSGSSSGNTASLTITRAQAEDEADYYCNSRDSSGNHVVFGGGTKLTVL
binding [1]: binds
binding [2]: binds
